PMC9433319
No constants are given. Whether binding was seen depends on the method and setting. Binding seen in cells or lysates may run through a third protein. Here binding means that the protein was enriched with, or labelled near, the bait; the list need not be complete.

Amino acid sequences for entries named in this document (tags omitted).
UniProt Q92624: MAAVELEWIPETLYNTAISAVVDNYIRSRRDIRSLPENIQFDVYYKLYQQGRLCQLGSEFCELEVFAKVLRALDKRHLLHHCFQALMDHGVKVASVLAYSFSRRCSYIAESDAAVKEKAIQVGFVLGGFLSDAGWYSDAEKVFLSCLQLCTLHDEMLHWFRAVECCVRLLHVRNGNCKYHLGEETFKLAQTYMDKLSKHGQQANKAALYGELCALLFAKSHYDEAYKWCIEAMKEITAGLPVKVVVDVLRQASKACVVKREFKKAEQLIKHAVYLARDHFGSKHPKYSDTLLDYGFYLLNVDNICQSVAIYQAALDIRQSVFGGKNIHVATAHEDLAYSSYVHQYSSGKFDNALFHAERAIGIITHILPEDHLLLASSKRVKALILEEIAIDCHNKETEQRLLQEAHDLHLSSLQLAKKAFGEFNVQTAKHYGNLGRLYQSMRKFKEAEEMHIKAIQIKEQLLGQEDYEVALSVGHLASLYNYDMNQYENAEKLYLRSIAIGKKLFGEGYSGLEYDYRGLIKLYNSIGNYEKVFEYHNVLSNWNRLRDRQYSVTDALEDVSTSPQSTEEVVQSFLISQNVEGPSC
UniProt P14404: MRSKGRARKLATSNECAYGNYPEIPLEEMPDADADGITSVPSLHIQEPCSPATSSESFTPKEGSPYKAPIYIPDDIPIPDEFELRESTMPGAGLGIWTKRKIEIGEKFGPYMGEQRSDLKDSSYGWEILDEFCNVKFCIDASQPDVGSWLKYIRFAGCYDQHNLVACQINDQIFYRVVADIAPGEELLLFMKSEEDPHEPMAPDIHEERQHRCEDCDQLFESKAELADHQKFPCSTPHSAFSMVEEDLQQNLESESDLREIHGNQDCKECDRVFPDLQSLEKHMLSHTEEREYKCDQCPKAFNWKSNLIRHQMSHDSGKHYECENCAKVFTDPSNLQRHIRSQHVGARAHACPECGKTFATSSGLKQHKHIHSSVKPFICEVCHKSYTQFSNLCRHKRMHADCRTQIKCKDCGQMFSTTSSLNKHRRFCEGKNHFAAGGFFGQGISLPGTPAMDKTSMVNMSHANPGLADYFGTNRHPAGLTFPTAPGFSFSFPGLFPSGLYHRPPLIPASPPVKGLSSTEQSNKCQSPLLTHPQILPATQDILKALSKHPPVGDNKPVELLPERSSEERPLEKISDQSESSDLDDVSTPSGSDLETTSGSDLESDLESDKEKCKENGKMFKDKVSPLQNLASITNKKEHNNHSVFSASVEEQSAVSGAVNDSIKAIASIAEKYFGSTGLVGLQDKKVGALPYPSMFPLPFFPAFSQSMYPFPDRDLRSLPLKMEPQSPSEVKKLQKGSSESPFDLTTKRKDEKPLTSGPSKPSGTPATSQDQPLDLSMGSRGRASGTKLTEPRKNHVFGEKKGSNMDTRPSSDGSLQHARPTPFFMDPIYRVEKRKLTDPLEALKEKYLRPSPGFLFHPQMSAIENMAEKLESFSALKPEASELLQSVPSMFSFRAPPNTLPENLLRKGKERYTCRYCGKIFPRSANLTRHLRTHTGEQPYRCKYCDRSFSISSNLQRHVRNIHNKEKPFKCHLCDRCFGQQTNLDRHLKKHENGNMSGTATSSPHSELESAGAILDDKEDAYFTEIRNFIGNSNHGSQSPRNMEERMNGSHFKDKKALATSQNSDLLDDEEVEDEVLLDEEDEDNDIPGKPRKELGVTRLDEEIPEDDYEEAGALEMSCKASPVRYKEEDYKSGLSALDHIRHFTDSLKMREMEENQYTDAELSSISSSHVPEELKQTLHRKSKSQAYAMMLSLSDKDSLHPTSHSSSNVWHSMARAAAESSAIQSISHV
UniProt P97471: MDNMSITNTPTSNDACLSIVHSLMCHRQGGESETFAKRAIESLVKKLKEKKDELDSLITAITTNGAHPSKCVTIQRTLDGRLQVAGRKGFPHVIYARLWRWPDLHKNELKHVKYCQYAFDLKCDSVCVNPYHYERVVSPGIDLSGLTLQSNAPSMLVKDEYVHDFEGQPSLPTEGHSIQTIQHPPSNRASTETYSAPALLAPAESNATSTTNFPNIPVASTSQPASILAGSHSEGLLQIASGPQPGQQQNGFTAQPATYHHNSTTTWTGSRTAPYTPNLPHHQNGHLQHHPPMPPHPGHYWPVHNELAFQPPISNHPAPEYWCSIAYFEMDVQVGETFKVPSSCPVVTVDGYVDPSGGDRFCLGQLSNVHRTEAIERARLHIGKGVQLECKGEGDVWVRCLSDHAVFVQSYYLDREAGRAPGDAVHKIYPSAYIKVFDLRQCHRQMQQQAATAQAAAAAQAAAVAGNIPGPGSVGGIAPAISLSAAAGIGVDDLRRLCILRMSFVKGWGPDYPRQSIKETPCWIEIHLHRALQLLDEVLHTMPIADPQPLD
UniProt A2A935: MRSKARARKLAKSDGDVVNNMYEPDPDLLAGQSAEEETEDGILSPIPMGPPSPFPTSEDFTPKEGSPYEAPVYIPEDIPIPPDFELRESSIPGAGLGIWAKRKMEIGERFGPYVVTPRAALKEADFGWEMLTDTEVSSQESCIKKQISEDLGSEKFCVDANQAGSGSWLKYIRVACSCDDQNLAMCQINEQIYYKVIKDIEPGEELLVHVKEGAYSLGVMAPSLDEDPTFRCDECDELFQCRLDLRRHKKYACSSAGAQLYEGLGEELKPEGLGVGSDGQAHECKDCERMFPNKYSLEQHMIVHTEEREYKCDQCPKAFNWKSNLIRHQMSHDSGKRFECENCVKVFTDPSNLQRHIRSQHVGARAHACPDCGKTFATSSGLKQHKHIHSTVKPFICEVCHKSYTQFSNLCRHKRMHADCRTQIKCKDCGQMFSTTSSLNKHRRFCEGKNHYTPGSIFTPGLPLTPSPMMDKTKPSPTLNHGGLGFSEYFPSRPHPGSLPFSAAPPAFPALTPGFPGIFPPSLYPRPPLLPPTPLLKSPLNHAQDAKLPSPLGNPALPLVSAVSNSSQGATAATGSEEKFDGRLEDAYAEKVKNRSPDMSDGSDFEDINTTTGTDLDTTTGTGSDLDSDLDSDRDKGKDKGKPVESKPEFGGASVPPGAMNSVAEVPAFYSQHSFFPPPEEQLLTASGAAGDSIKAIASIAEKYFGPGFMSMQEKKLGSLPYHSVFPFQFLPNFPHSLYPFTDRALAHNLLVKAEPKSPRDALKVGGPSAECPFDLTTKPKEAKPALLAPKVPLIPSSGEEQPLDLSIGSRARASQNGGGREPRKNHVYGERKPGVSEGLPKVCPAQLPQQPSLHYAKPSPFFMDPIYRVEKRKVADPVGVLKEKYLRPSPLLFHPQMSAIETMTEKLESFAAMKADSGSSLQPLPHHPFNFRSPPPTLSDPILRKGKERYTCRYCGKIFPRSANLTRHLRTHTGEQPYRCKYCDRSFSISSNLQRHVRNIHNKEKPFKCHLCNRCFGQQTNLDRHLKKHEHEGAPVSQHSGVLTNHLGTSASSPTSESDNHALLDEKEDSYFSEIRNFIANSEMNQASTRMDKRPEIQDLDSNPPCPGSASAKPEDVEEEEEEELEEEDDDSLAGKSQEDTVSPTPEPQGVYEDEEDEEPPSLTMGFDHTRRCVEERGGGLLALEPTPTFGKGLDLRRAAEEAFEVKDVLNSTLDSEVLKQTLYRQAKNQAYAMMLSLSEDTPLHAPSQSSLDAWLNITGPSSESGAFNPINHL

B1: EHD2, endogenous (protein, UniProt Q8BH64 1-543)
chain: MFSWLKKGGARGQRPEAIRTVTSSLKELYRTKLLPLEEHYRFGSFHSPALEDADFDGKPMVLVAGQYSTGKTSFIQYLLEQEVPGSRVGPEPTTDCFVAVMHGETEGTVPGNALVVDPEKPFRKLNPFGNTFLNRFMCAQLPNQVLESISIIDTPGILSGAKQRVSRGYDFPAVLRWFAERVDLIILLFDAHKLEISDEFSEAIGALRGHEDKIRVVLNKADMVETQQLMRVYGALMWALGKVVGTPEVLRVYIGSFWSQPLLVPDNRRLFELEEQDLFRDIQGLPRHAALRKLNDLVKRARLVRVHAYIISYLKKEMPTVFGKENKKKQLILKLPVIFAKIQLEHHISPGDFPDCQKMQELLMAHDFTKFHSLKPKLLEALDDMLAQDIAKLMPLLRQEELESVEAGVQGGAFEGTRMGPFVERGPDEAIEDGEEGSEDDAEWVVTKDKSKYDEIFYNLAPADGKLSGSKAKTWMVGTKLPNSVLGRIWKLSDVDRDGMLDDEEFALASHLIEAKLEGHGLPTNLPRRLVPPSKRRQKGSAE

Biological target: HA-tagged APPBP2 (codon-optimized human Appbp2 cDNA) (human) (UniProt Q92624)
Test: affinity purification with mass spectrometry; HA-tagged Appbp2 complex from nuclear extracts of differentiated Appbp2-KO adipocytes treated with MG132; anti-HA magnetic beads 2 h; binding buffer 50 mM Tris-Cl pH 7.4, 150 mM NaCl, 0.5% Triton X-100; eluted by 3xHA peptide; LC-MS/MS

Row | Molecule | binding
1 | PRDM3, endogenous (from UniProt P14404 1-1232) | binds
2 | SMAD4, endogenous (from UniProt P97471 1-551) | binds
3 | PRDM16 (PR domain-containing 16), endogenous (from UniProt A2A935 1-1275) | binds
4 | B1 | binds
